# Data: paper PMC8438024
# Chains of the proteins cited; added tags and fusions are not shown.
# UniProt Q9UKV8: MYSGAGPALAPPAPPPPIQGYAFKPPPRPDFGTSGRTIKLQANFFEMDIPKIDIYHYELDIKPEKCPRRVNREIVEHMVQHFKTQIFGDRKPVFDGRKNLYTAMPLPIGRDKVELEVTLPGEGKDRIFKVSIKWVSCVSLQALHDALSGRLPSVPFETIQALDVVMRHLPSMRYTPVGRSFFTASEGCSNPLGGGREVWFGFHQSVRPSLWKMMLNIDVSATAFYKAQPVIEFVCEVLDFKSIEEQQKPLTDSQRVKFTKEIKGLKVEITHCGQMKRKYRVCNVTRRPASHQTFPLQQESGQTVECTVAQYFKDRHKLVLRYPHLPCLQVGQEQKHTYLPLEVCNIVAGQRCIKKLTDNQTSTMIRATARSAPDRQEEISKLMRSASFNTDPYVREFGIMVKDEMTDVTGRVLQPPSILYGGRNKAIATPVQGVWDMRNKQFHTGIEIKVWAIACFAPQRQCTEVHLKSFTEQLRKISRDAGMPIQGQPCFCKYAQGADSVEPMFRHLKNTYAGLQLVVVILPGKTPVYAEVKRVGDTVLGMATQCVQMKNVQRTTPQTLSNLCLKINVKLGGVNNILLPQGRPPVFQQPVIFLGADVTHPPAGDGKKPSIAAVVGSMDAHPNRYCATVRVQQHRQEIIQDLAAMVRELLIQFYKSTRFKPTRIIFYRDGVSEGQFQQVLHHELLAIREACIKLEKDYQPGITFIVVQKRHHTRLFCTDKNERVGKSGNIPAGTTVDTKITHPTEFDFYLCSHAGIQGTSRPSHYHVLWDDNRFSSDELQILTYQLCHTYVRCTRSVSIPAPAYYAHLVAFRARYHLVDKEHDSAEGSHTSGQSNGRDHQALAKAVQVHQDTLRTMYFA
# UniProt Q96EP0: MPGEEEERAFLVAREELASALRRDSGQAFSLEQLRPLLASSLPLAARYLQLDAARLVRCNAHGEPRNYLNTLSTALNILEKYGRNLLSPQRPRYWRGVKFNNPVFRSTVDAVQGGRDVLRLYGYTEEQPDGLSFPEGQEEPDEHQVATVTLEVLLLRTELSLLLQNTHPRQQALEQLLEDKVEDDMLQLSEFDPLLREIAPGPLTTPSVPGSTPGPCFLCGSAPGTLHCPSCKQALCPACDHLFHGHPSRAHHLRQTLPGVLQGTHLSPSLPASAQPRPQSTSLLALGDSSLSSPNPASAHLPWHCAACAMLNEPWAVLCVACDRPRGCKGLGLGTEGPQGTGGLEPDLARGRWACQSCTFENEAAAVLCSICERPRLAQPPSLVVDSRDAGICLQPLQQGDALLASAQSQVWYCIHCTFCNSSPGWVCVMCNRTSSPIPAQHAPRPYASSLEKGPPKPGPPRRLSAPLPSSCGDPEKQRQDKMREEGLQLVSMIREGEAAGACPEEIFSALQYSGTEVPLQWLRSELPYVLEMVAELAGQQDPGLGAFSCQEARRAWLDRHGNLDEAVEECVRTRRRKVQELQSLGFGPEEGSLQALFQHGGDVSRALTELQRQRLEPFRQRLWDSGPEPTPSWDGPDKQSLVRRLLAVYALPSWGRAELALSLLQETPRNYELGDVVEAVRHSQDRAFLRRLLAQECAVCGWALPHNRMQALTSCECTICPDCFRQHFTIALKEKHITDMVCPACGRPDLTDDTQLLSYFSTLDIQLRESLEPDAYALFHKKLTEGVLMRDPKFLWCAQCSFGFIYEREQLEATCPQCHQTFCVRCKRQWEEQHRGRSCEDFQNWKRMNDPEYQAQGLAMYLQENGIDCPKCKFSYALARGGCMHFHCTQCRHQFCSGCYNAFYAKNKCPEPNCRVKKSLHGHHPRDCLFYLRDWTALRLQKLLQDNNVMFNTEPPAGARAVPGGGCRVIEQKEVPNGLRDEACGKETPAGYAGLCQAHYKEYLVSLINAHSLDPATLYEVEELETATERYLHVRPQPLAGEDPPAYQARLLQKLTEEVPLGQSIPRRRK
# No constants are given. Whether binding was seen depends on the method and setting. Binding seen in cells or lysates may run through a third protein. These calls come from enrichment with a bait or labelling near it, and not all partners need be listed.
# Biological target: Flag-AGO2 (stably expressed in HeLa cells) (UniProt Q9UKV8)
# Assay: affinity purification with mass spectrometry; HeLa cells stably expressing Flag-AGO2, normoxia (21% O2) or hypoxia (1% O2) for 24 h; RIPA lysis buffer with 10 mM EDTA; anti-Flag M2 antibody and protein A/G-agarose beads, 4 °C overnight; Nano-LC-MS/MS
row,binding,Substance
1,binds,endogenous HOIP (HeLa cells) (from UniProt Q96EP0 1-1072)
2,binds,endogenous HOIL-1L (HeLa cells) (from UniProt Q9BYM8-1 1-510)
